Experimental data reported in PubChem BioAssay AID1794845 (National Center for Advancing Translational Sciences (NCATS), 2023).
In all, about 6,900 compounds went through this assay and fewer than 10 were called active. The call rests on the fitted dose curve; in most records, active means well fitted curve in the direction sought with a large enough effect; inconclusive means small, poorly fitted or top-dose-only effect, or another doubt; inactive means no such curve, though single readings can be large or run the other way. This is one part of the list.

Chains of the proteins cited; added tags and fusions are not shown. Lines headed by an entry give the natural chain unless they say otherwise; changes in a name come on top.
UniProt C7C422: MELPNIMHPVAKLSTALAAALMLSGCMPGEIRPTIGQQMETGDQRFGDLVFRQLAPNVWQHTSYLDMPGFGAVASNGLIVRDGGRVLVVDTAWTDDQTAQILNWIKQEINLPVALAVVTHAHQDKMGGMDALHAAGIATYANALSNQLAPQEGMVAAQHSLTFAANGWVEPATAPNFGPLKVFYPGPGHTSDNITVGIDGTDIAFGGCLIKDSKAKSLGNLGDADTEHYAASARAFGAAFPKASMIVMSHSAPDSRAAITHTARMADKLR

What follows are compounds tested against Metallo-beta-lactamase type 2 (Klebsiella pneumoniae) (UniProt C7C422) (assay: qHTS to identify inhibitors of the New Delhi Metallo-beta-lactamase (NDM): primary screen against the NCATS Gemini Collection). Details: NDM-1 enzyme, meropenem hydrolysis, absorbance 300 nm; at 38.4 µM (top of the series) unless noted.
Method in brief: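 NDM-1 at 2 nM final in 50 mM HEPES pH 7.0, 1 uM ZnSO4, 0.01% Tween20, preincubated >30 min with compound. Meropenem 50 uM final added; absorbance at 300 nm after 30 min.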
Further: % of control where 0% means no effect.

Activity % (negative = inhibition), inactive:
O[C@H]1CC[C@@H](Cc2cc(-c3ccccn3)on2)O[C@@H]1CN(Cc1ccccc1)Cc1ccccc1 -1.45%, CN1C(=O)COC[C@@H]1[C@H](O)c1ccc(NC(=O)Nc2ccccc2)cc1 -2.29% [at 57.5 µM], O=C(N1CCCCC1)C1(c2ccc(Cl)cc2)CCOCC1 0.0752%, CC(C)Oc1ccc2c(NC(=O)c3ccc(=O)n(C)n3)nn(CC(F)(F)F)c2c1 18.6%, Cc1ccc(C)c(CC(=O)NCc2cc3n(n2)CCN(C(=O)N(C)C)C3)c1 -10.3%, COc1ccc(CN2C[C@@H](F)[C@@H](OCc3nc4ccncc4[nH]3)C2)cc1 5.8% [at 57.5 µM], COc1ccc(NC(=O)C2CCCN(c3cnn(Cc4ccccc4)c(=O)c3)C2)cc1OC (stereo not drawn) 2.94%, c1coc(-c2ccnc3nc(C4CCC4)nn23)c1 9.61%, Cc1cc(C)n(-c2cccc(CN(C)C(=O)c3cn(Cc4ccc(Cl)cc4)nn3)c2)n1 9.75%, Cc1noc(C)c1-c1ccc2c(n1)CN(Cc1nc3ccccc3s1)C(=O)CO2 3.25% [at 57.5 µM], Cc1noc2ncnc(N3CCC4(CC3)CC(c3ccccc3)CN(C)C4)c12 (stereo not drawn) 19.8%, CNC(=O)[C@@H]1CN(C(=O)CCc2cccc(OC)c2)C[C@H]1c1nc(C)no1 -9.57%, O=C(CN1C(=O)C2(CCNCC2)Nc2ccccc21)NC1CCCCCC1 3.33%, CC1(c2cccnc2)N(CC2CC2)C(=O)OC12CCN(C(=O)c1cccc(O)c1)CC2 (stereo not drawn) -2.88% [at 57.5 µM], CN(C)Cc1nnc(C2CC(NC(=O)c3nc4ccccc4[nH]3)C2)n1C (stereo not drawn) 17%, CN(CCc1ccccn1)C(=O)c1ccc2c(c1)[nH]c(=O)n2C1CCC(O)CC1 (stereo not drawn) 12.3%, COc1ccc(-c2cc(C[C@@H]3CC[C@H](O)[C@@H](CNC4CCN(C(C)=O)CC4)O3)no2)cc1 2%, O=C(N1CCC(NS(=O)(=O)c2cccs2)CC1)N1CC2CC(C1)[C@H]1CCCC(=O)N1C2 (stereo partly drawn) -2.64%, Fc1ccccc1-c1noc(N2CCCCC2)n1 1.7%, COc1cccc(C(=O)Nc2ccc(-c3ccc(OC)nn3)cc2)c1 20.5%, O=C(Cc1ccccc1)NCC1CCCCC(=O)N1 (stereo not drawn) 8.97%, Cc1cc(C(=O)N2CCc3ncnc(N4CCOCC4)c3CC2)n(C)n1 23%, CCCc1cc(N2CCC(NCc3c(F)cccc3Cl)CC2)nc(C)n1 5.08%, COC[C@H]1CCCN1C(=O)C[C@@H]1O[C@H](CNS(C)(=O)=O)[C@@H](O)[C@H]1O 11.8% [at 57.5 µM], COc1ccc(F)cc1-c1cccc(C(=O)NCC(=O)N2CCN(C)CC2)c1 -0.0041%, COc1cc(CN2CCN(c3noc(C(C)C)n3)CC2CCO)cc(OC)c1 (stereo not drawn) 0.477%, O=C(Cc1ccccc1)N1CCCC2(CC(c3cccc(C(F)(F)F)c3)=NO2)C1 (stereo not drawn) 11.8%, COc1ccccc1OCCNC(=O)C1CCN(c2cc(C(F)(F)F)nc(C)n2)CC1 3.98%, COc1cccc(CN2CCOC[C@H](O)C2)c1 8.9% [at 77.1 µM], COc1ccccc1-c1cc(C(=O)N2CCOCC2)nn2cccc12 4.4%, CCOC(=O)c1cccc(NC(=O)C2=CC(C)(C)Oc3ccc(OC)cc32)c1 9.7%, Cc1nn(CCO)cc1CN1CCN(C(=O)c2cc[nH]c2)CC(O)C1 (stereo not drawn) -5.58%, CS(=O)(=O)N1CCN2C(=O)N(C3CCCCC3)C[C@H]2C1 1.3% [at 57.5 µM], OC1(Cn2ccnc2)CCN(Cc2ccccc2Cn2cccn2)CC1 -0.303%, COc1cccc(CN2CCC[C@@H](O)[C@H](NC(=O)c3ccc(OCc4ccccc4)cc3)C2)c1 -6.3%, O=C1CCN(C(=O)c2ccsc2)CCCC(C(=O)N2CCN(c3ccccn3)CC2)CCN1 (stereo not drawn) 0.66%, OCc1nnc(C2CC(Nc3ncnc4ccccc34)C2)n1C1CC1 (stereo not drawn) 6.71%, O=C([C@@H]1CCCN1C(=O)Cn1ccc2ccccc2c1=O)N1CCOCC1 9.35%, CN1CCCCCC(O)c2cc(C(=O)N3CCN(c4ccc(F)cc4)CC3)ccc21 (stereo not drawn) 7.28%, CN1Cc2ccc(C(=O)Nc3ccc4cn[nH]c4c3)cc2OCC1=O 26.3% [at 57.5 µM], Cc1ncc(C(=O)N2CCC3(CC(=O)NC3=O)C2)c(-c2ccccc2)n1 (stereo not drawn) -4.19%, N[S+](=O)([O-])c1ccc2c(c1)OCCN(Cc1ccccc1Cl)C2 -4.33% [at 57.5 µM], CC(C)N(Cc1cccc(N2CCN(S(=O)(=O)c3c(Cl)cccc3Cl)CC2)c1F)S(C)(=O)=O 13.9%, Cc1noc(C)c1-c1cnc(Nc2ccncc2)c2c1CCO2 6.5% [at 57.5 µM], Cn1cccc1-c1noc(C2CCN(C(=O)COc3ccc(F)cc3)CC2)n1 19.1%, O=C(c1nccc2ccccc12)N1CCc2c(nc(-c3ccccc3)[nH]c2=O)C1 12%, COc1ccc(C(=O)N2CCCC3(COc4ccccc4C(=O)N3)C2)cc1 (stereo not drawn) -0.598%, Cn1cc(CN2CCOC[C@H](Oc3ccc(S(C)(=O)=O)cc3)C2)c2ccccc21 39.4% [at 57.5 µM], O=C1N[C@@H]2CCN(C(=O)c3ccc(-c4ccccc4)cc3)[C@@H]2C(=O)N1Cc1ccccc1 10.9% [at 57.5 µM], CNC(=O)[C@@H]1C[C@@H](n2cc(CC(C)C)nn2)CN1 19.9%, CC(=O)N1CCCC(c2[nH]ccc2C(=O)N2CCN(c3ccccc3)CC2)C1 (stereo not drawn) -6.69%, Cc1cnc(N2CC[C@](C)(O)[C@@H](O)C2)nc1N(C)C 23%, C=CCN(C)C(=O)C[C@@H]1c2nc(NC(=O)c3ccco3)sc2C[C@@H]2[C@](C)(CO)[C@H](O)CC[C@]21C 20.8%, CCCCNC(=O)[C@H]1CCC[C@H]1NC(=O)c1ccncc1 -1.57%, Cc1noc(C)c1S(=O)(=O)N1CCC2(CC1)CC1C(=O)NCCN1C2 (stereo not drawn) 9.44%, COc1ccc(CNC(=O)C2CCN(Cc3ccccc3-c3ccccc3F)CC2)cc1 21.8%, CCOc1cccc(CN2CCCC(CNC(=O)c3cccc(OC)c3OC)C2)c1 (stereo not drawn) -1.76%, O=C(NC1CCN(Cc2cccc(-c3cccs3)c2)CC1)c1cccc(Cl)c1 18.9%, COc1ccc(-c2ccccc2NC(=O)C2CCCN(CC=C(C)C)C2)cc1 (stereo not drawn) 3.28%, O=C(NCCc1nc2c(s1)CCCC2)C1NCCc2[nH]cnc21 (stereo not drawn) 10.2%, Cc1n[nH]c(C)c1C(N)C(=O)N(Cc1cccnc1)Cc1cccnc1 (stereo not drawn) 10.3%, COc1ccc(Cn2cnc3cccnc32)cc1 59.6% [at 57.5 µM], Cc1ccc(-c2nnc([C@H]3CCN(C(=O)COc4ccccc4)C3)o2)cc1 13.2% [at 57.5 µM], CN1C[C@H](NC(=O)c2cnccn2)CCC[C@@H](C(=O)N(C)Cc2cccnc2)CC1=O 42.4% [at 57.5 µM], COc1ccc(-c2cc(N3CCCC(NC(=O)c4cccc(C)c4)C3)n[nH]2)cc1 (stereo not drawn) 8.29%, CN(Cc1ccccc1C(F)(F)F)C(=O)Nc1ccccc1 -2.22% [at 57.5 µM], COc1ccc(OC)c(-c2nc3cc4c(cc3cc2CN2CCCOCC2)OCO4)c1 -8.71%, CC1=C[C@@H](CNS(C)(=O)=O)[C@H](C(C)C)C[C@H]1CC(=O)Nc1ccccn1 -0.916% [at 57.5 µM], CN(CCNc1nc(CCN)nc2ccccc12)S(C)(=O)=O 3.49%, COCC1(CNC(=O)c2nc3ccccc3[nH]2)C[C@@H](O)[C@@H](O)C1 (stereo partly drawn) 36.9% [at 57.5 µM], O[C@@H]1C[C@@H](c2nc(-c3ccc4c(c3)OCO4)no2)N(Cc2ccc(-c3ccccn3)cc2)C1 10.3%, COc1ccc(-c2cc(C(=O)N3C[C@@H](CN(C)C)[C@@H](CO)C3)[nH]n2)cc1 -8.26%, COc1cccc2c1OCC(C(=O)N1C[C@@H]3[C@H](C1)[C@H]1CC[C@@H]3O1)C2 (stereo partly drawn) 6.78%, O=C(c1ccc(CC2CC(=O)N(c3ccccc3)C2)nc1)N1CCCC1 (stereo not drawn) -0.519%, COCC(=O)N1CCCN(c2nc3ncccc3o2)CC1 26.1% [at 57.5 µM], O=C(O)c1cccc(-c2cccc(C(F)(F)F)c2)c1 12.5% [at 57.5 µM], Cc1occc1C(=O)N1CCC2(CCCN(CC3CCCCC3)C2=O)C1 (stereo not drawn) 11.8%, O=C(NC1CCCCCC1)c1ccc(CN2C(=O)NC3(CCS(=O)(=O)CC3)C2=O)cc1 -3.82%, COc1ccc(CN(C)Cc2ccoc2)cc1OCC(O)CN1CCCCC1 (stereo not drawn) -8.55%, O=S(=O)(Nc1cccn2nc(C3CC3)nc12)c1cccnc1 24.3%, Cc1ccc(-c2[nH]ncc2CN2CC[C@@](C)(O)[C@H](N3CCCC3)C2)cc1 -5.46%, CCn1ccc(C(=O)N2CC[C@H](c3nc(C)no3)[C@H](NC(=O)C3CC3)C2)n1 -0.749%, Clc1ccc(-c2cnc3n2C[C@H](CNC2CCCC2)OC3)cc1 -0.737% [at 57.5 µM]
